Data from publication PMC8326471, “Synthesis and biological evaluation of new pyrazolebenzene-sulphonamides as potential anticancer agents and hCA I and II inhibitors” (Turkish Journal of Chemistry, 2021).
“And” between values parts separate entries of the source, which are not always exact repeats. Equal values may be shown once.

Assays:
[1] = system: oral squamous cell carcinoma (HSC-2) cells; assay: Cytotoxicity assay (MTT), HSC-2; assay type: cell-based, human; conditions: selectivity index towards HSC-2
Description: (§1) The cytotoxicity of the compounds 4a - 4j were assayed towards human tumor cell lines [gingival carcinoma (Ca9–22), oral squamous cell carcinoma (HSC-2)] and human normal oral cells [gingival fibroblasts (HGF), and periodontal ligament fibroblasts (HPLF)] as described [42, 54 – 56]. In brief, all cells were cultured in Dulbecco’s modified eagle’s medium (DMEM) supplemented with 10% fetal bovine serum (FBS). The following concentrations of the compounds in dimethylsulfoxide (DMSO) were added to the medium and incubated at 37 ° C for 48 h: 4a - 4j ([…]), melphalan (3.12, 6.25, 12.5, 25. 50, 100, 200 and […]) and 5-FU ([…]). The media that contained the same concentration of DMSO ([…], 0.03125, 0.0625, 0.125, 0.25, 0.5 or 1%) were used as controls since DMSO above 0.25% is cytotoxic. The viable cell numbers were determined by the 3-(4,5-dimethylthiazol-2-yl)-2,5-diphenyltetrazolium bromide (MTT) assay. The CC50 values were determined from dose-response curves.
(§2) Cytotoxicity’s of the compounds 4a - 4j were evaluated towards Ca9–22, HSC-2, HSC-3, and HSC-4 human oral squamous cell carcinoma cell lines as tumor cell lines and HGF, HPLF, and HPC human normal oral cells as nontumor cells (Table 1) according to the procedure in the literature [42, 54 – 56]. 5-Fluorouracil (5-FU) was used as a reference anticancer drug.

[2] = system: HSC-4 oral squamous cell carcinoma cells; assay: Cytotoxicity assay (MTT), HSC-4; assay type: cell-based, human; conditions: selectivity index towards HSC-4
Description: as §1, §2

[3] = system: human oral squamous cell carcinoma cell lines (Ca9-22, HSC-2, HSC-3, HSC-4); assay: Cytotoxicity assay, all tumor cell lines (mean, TS1, PSE1); assay type: cell-based; conditions: for PSE1 (D/B2)×100: potency selectivity expression, all cells; for TS1 (D/B): tumor selectivity, mean non-tumor / mean tumor CC50
Description: as §1, §2
The tumor selectivity (TS1 and TS2) of each compound was calculated as described in previously reported literature procedures and these figures are presented in Table 1. Based on the TS1 values, 4f and 4g which have 2,5 and 2,4-dimethoxy substituents had the highest TS1 values in a series with 22.4 and 22.2, respectively. On the other hand, the 3,4,5-trimethoxy substituted compound 4i (TS1: 19.6) had the […] TS1 value. […] As expected, they were in accordance with the literature findings [16 – 18]. The second calculation (TS2) considered the differences of sensitivity between the malignant (Ca9–22) and non-malignant (HGF) cells derived from the same tissue (gingiva). According to TS2 values obtained, 4i (3,4,5-trimethoxy) had the highest TS2 value of 43.
The desired properties for a lead compound are being both markedly cytotoxic and selectively toxic for tumors. PSE1 reflects general cytotoxicity and selectivity potency of the compound towards all cells used, whereas PSE2 seems more specified since it was considered for the same origin cells. When the compounds tested towards OSCC lines were considered in terms of PSE2 values of the compounds. The best poly-methoxylated compounds were 4i (with 3,4,5-trimethoxy, PSE2 = 461.5) ˃ 4f (with 2,5-dimethoxy, PSE2 = 425.1) ˃ 4g (with 2,4-dimethoxy, PSE2 = 405.4) while the best mono-methoxylated derivative was 4b (with 4-methoxy, PSE2 = 205).

[4] = system: HSC-3 oral squamous cell carcinoma cells; assay: Cytotoxicity assay (MTT), HSC-3; assay type: cell-based, human; conditions: selectivity index towards HSC-3
Description: as §1, §2

[5] = system: gingival carcinoma (Ca9-22) cells; assay: Cytotoxicity assay (MTT), Ca9-22; assay type: cell-based, human; conditions: for PSE2 (C/A2)x100: potency selectivity expression, HGF vs Ca9-22; for decrease of PSE2 (times) compared to 4a / increase of PSE2 (times) compared to 4a: relative to 4a; for SI Ca9-22: selectivity index towards Ca9-22; for TS2 (C/A): tumor selectivity, HGF / Ca9-22 CC50; for increase of PSE2 (times) compared to 4b: relative to 4b (4-methoxy); for increase of PSE2 (times) compared to 4d: relative to 4d (2-methoxy); for increase of PSE2 (times) compared to 4c: relative to 4c (3-methoxy)
Description: as §1, §2

OSCC lines = conditions: cited from earlier work

Row | SMILES | SI HSC-2 [1] | SI HSC-4 [2] | PSE1 (D/B2)×100 [3] | TS1 (D/B) [3] | SI HSC-3 [4] | PSE2 (C/A2)x100 [5] | decrease of PSE2 (times) compared to 4a [5] | SI Ca9-22 [5] | TS2 (C/A) [5] | TS (first value) (OSCC lines; against OSCC, compared with TS 18 of 4b) | TS (second value) (OSCC lines; against OSCC, compared with TS 28.6 of 4b) | increase of PSE2 (times) compared to 4a [5] | increase of PSE2 (times) compared to 4b [5] | increase of PSE2 (times) compared to 4d [5] | increase of PSE2 (times) compared to 4c [5] | increase of PSE2 (times) compared to 4f ([5]; relative to 4f) | increase of PSE2 (times) compared to 4g ([5]; relative to 4g) | potency-selectivity expression (PSE) (OSCC lines; towards OSCC lines) | tumor specificity (TS) (OSCC lines; towards OSCC lines)
1 | COc1cc(OC)c(C2=NN(c3ccc(S(N)(=O)=O)cc3)C(c3ccc4c(c3)OCO4)C2)cc1OC (stereo not drawn) [4h, 4-[5-(1,3-Benzodioxol-5-yl)-3-(2,4,5-trimethoxyphenyl)-4,5-dihydro-1H-pyrazol-1-yl]benzenesulphonamide] | 1.0 | 18.3 | 0.9 | 1.9 | 18.8 | 0.3 | 64.3 | 1.0 | 1.0 |  |  |  |  |  |  |  |  |  | 
2 | COc1ccc(C2=NN(c3ccc(S(N)(=O)=O)cc3)C(c3ccc(OC)c(OC)c3)C2)cc1 (stereo not drawn) [4-(5-(3,4-dimethoxyphenyl)-3-(4-methoxyphenyl)-4,5-dihydro-1 H -pyrazol-1-yl)benzenesulphonamide] |  |  |  |  |  |  |  |  |  | 0.7 | 3.4 |  |  |  |  |  |  |  | 
3 | COc1ccc(C2=NN(c3ccc(S(N)(=O)=O)cc3)C(c3ccc4c(c3)OCO4)C2)cc1 (stereo not drawn) [4b, 4-[5-(1,3-Benzodioxol-5-yl)-3-(4-methoxyphenyl)-4,5-dihydro-1H-pyrazol-1-yl]benzenesulphonamide] | 16.7 | 16.5 | 108.6 | 18 | 18.5 | 205 and 205.1 |  | 21.4 | 28.6 |  |  | 10.6 |  |  |  |  |  |  | 
4 | COc1ccc(C2=NN(c3ccc(S(N)(=O)=O)cc3)C(c3ccc4c(c3)OCO4)C2)c(OC)c1 (stereo not drawn) [4g, 4-[5-(1,3-Benzodioxol-5-yl)-3-(2,4-dimethoxyphenyl)-4,5-dihydro-1H-pyrazol-1-yl]benzenesulphonamide] | 18.9 | 20.1 | 193.2 | 22.2 | 26.0 | 405.4 |  | 25.8 | 40.3 |  |  | 21.0 | 2.0 | 20.8 |  |  |  |  | 
5 | COc1cc(C2=NN(c3ccc(S(N)(=O)=O)cc3)C(c3ccc4c(c3)OCO4)C2)cc(OC)c1OC (stereo not drawn) [4i, 4-[5-(1,3-Benzodioxol-5-yl)-3-(3,4,5-trimethoxyphenyl)-4,5-dihydro-1H-pyrazol-1-yl]benzenesulphonamide] | 9.2 | 42.5 | 134.6 | 19.6 | 25.2 | 461.5 |  | 30.6 | 43 |  |  | 24.0 | 2.3 | 23.7 | 45.7 | 1.1 | 1.12 |  | 
6 | COc1cc(C2=NN(c3ccc(S(N)(=O)=O)cc3)C(c3ccc4c(c3)OCO4)C2)ccc1O (stereo not drawn) [4j, 4-[5-(1,3-Benzodioxol-5-yl)-3-(4-hydroxy-3-methoxyphenyl)-4,5-dihydro-1H-pyrazol-1-yl]benzenesulphonamide] | 2.4 | 3.9 | 13.8 | 3.0 | 2.5 | 26.4 |  | 3.8 |  |  |  |  |  |  | 2.6 |  |  |  | 
7 | NS(=O)(=O)c1ccc(N2N=C(c3ccccc3)CC2c2ccc3c(c2)OCO3)cc1 (stereo not drawn) [4a, 4-[5-(1,3-Benzodioxol-5-yl)-3-phenyl-4,5-dihydro-1H-pyrazol-1 yl]benzenesulphonamide] | 2.0 | 2 | 10.3 | 2.3 | 2.5 | 19.3 |  | 3.1 | 3.3 |  |  |  |  |  |  |  |  |  | 
8 | O=c1[nH]cc(F)c(=O)[nH]1 [5-FU, 5-Fluorouracil, reference compound] | 3.8 | 78.9 | 17.1 | 13.0 | 126.4 | 206 |  | 44.8 | 45.4 |  |  |  |  |  |  |  |  |  | 
9 | COc1ccc(C2CC(c3cccs3)=NN2c2ccc(S(N)(=O)=O)cc2)c(OC)c1OC (stereo not drawn) [compound 34, 4-[5-(2,3,4-trimethoxyphenyl)-3-(thiophen-2-yl)-4,5-dihydro-1 H -pyrazol-1-yl]benzensulphonamide] |  |  |  |  |  |  |  |  |  |  |  |  |  |  |  |  |  | 10.5 | 9.5
10 | COc1ccc(OC)c(C2=NN(c3ccc(S(N)(=O)=O)cc3)C(c3ccc4c(c3)OCO4)C2)c1 (stereo not drawn) [4f, 4-[5-(1,3-Benzodioxol-5-yl)-3-(2,5-dimethoxyphenyl)-4,5-dihydro-1H-pyrazol-1-yl]benzenesulphonamide] | 17.4 | 22.8 | 183.6 | 22.4 | 23.8 | 425.1 |  | 28.2 | 41.2 |  |  | 22.0 |  | 21.8 | 42.1 |  |  |  | 
11 | COc1cccc(C2=NN(c3ccc(S(N)(=O)=O)cc3)C(c3ccc4c(c3)OCO4)C2)c1 (stereo not drawn) [4c, 4-[5-(1,3-Benzodioxol-5-yl)-3-(3-methoxyphenyl)-4,5-dihydro-1H-pyrazol-1-yl]benzenesulphonamide] | 6.5 | 6.6 | 39.1 | 6.8 | 8.6 | 10.1 | at half the value | 6.1 | 2.0 |  |  |  |  |  |  |  |  |  | 
12 | COc1ccccc1C1=NN(c2ccc(S(N)(=O)=O)cc2)C(c2ccc3c(c2)OCO3)C1 (stereo not drawn) [4d, 4-[5-(1,3-Benzodioxol-5-yl)-3-(2-methoxyphenyl)-4,5-dihydro-1H-pyrazol-1-yl]benzenesulphonamide] | 2.2 | 2.5 | 17.9 | 2.6 | 3.0 | 19.5 |  | 2.7 | 2.7 |  |  |  |  |  |  |  |  |  | 
